Assay results as given in patent EP0306160A2, “Molluscicides” (BRITISH TECHNOLOGY GROUP LIMITED, priority 1987, dated 1989).

What was measured:
Deroceras reticulatum = assay: Bait bioassay with increasing concentrations in standard bait (Examples 19-35); format: in vivo; conditions: for a.i.ingested: total over six groups of ten slugs offered bait containing 1,4,7,10,13 or 16% a.i.; for Eaten (%): 0.5 g bait, 10 slugs, 4 days
[1] = system: grey field slugs, Deroceras reticulatum; assay: Stomach poison action, voluntary feeding (wheatmeal bait); format: in vivo

| Compound | a.i.ingested (Deroceras reticulatum) [mg/60 slugs] | Eaten (%) (Deroceras reticulatum; 1 % a.i. in standard bait) | Eaten (%) (Deroceras reticulatum; 4 % a.i. in standard bait) | Eaten (%) (Deroceras reticulatum; 7 % a.i. in standard bait) | Eaten (%) (Deroceras reticulatum; 10 % a.i. in standard bait) | Eaten (%) (Deroceras reticulatum; 13 % a.i. in standard bait) | Eaten (%) (Deroceras reticulatum; 16 % a.i. in standard bait) | other results |
| --- | --- | --- | --- | --- | --- | --- | --- | --- |
| CC(C)CN(N=O)[O][Fe]([O]N(CC(C)C)N=O)[O]N(CC(C)C)N=O [Example 35, Tris (N-nitroso-N-2-methylpropyl hydroxylaminato) Fe III] | 160 |  |  |  |  |  |  |  |
| CCC(=O)C=C(C)[O][Al]([O]C(C)=CC(=O)CC)[O]C(C)=CC(=O)CC [Example 20, Tris (2,4-hexanedionato) Al III] |  | 100 | 100 | 58 | 29 | 26 | 22 |  |
| Tris (1-dimethoxy-2, 4-pentanedionato) Al III [Example 29] | 35 |  |  |  |  |  |  |  |
| CC(=O)C=C(C)[O][Al]([O]C(C)=CC(C)=O)[O]C(C)=CC(C)=O [Example 19, Tris (2,4-pentanedionato) Al III] |  | 100 | 44 | 29 | 20 | 19 | 20 | Bait eaten by 10 slugs ([1]; 0.01 % Al in wheatmeal bait): 1.46 (Ex.3) g Dry Wt; Bait eaten by 10 slugs ([1]; 0.03 % Al in wheatmeal bait): 0.95 (Ex.4) g Dry Wt; Bait eaten by 10 slugs ([1]; 0.1 % Al in wheatmeal bait): 0.80 (Ex.5) g Dry Wt; Bait eaten by 10 slugs ([1]; 0.1 % Metal in wheatmeal bait (Table III)): 0.315 (Ex. 9) g Dry Wt.; Bait eaten by 10 slugs ([1]; 0.3 % Al in wheatmeal bait): 0.51 (Ex 6) g Dry Wt; Bait eaten by 10 slugs ([1]; 0.5 % Metal in wheatmeal bait (Table III)): 0.105 (Ex. 10) g Dry Wt.; Bait eaten by 10 slugs ([1]; 1.0 % Al in wheatmeal bait): 0.43 (Ex.7) g Dry Wt; Bait eaten by 10 slugs ([1]; 1.0 % Metal in wheatmeal bait (Table III)): 0.120 (Ex. 11) g Dry Wt.; Bait eaten by 10 slugs ([1]; 3.0 % Al in wheatmeal bait): 0.52 (Ex.8) g Dry Wt; Bait eaten by 10 slugs ([1]; 5.0 % Metal in wheatmeal bait (Table III)): 0.180 (Ex. 12) g Dry Wt.; Bait eaten by 10 slugs ([1]; 10.0 % Metal in wheatmeal bait (Table III)): 0.090 (Ex. 13) g Dry Wt. |
| CCC(C)N(N=O)[O][Fe]([O]N(N=O)C(C)CC)[O]N(N=O)C(C)CC (stereo not drawn) [Example 34, Tris (N-nitroso-N-2-butyl hydroxylaminato) Fe III] | 54 |  |  |  |  |  |  |  |
| CCCCN(N=O)[O][Fe]([O]N(CCCC)N=O)[O]N(CCCC)N=O [Example 33, Tris (N-nitroso-N-n-butyl hydroxylaminato) Fe III] | 53 |  |  |  |  |  |  |  |
| CN(N=O)[O][Fe]([O]N(C)N=O)[O]N(C)N=O [Example 22, Tris (N-nitroso-N-methyl hydroxylaminato) Fe III] |  | 17 | 11 | 4 | 8 | 5 | 7 |  |
| CCN(N=O)[O][Fe]([O]N(CC)N=O)[O]N(CC)N=O [Example 30, Tris (N-nitroso-N-ethyl hydroxylaminato) Fe III] | 6 |  |  |  |  |  |  |  |
| CCC(=O)C=C(CC)[O][Al]([O]C(=CC(=O)CC)CC)[O]C(=CC(=O)CC)CC [Example 21, Tris (3,5-heptanedionato) Al III] |  | 100 | 100 | >10 | >10 | >10 | >10 |  |
| CC(C)N(N=O)[O][Fe]([O]N(N=O)C(C)C)[O]N(N=O)C(C)C [Example 32, Tris (N-nitroso-N-2-propyl hydroxylaminato) Fe III] | 3 |  |  |  |  |  |  |  |
| CCCN(N=O)[O][Fe]([O]N(CCC)N=O)[O]N(CCC)N=O [Example 31, Tris (N-nitroso-N-n-propyl hydroxylaminato) Fe III] | 55 |  |  |  |  |  |  |  |
| Aluminium sulphate [reference compound] |  |  |  |  |  |  |  | Bait eaten by 10 slugs ([1]; 0.01 % Al in wheatmeal bait): 1.31 g Dry Wt; Bait eaten by 10 slugs ([1]; 0.03 % Al in wheatmeal bait): 1.08 g Dry Wt; Bait eaten by 10 slugs ([1]; 0.1 % Al in wheatmeal bait): 0.62 g Dry Wt; Bait eaten by 10 slugs ([1]; 0.3 % Al in wheatmeal bait): 0.89 g Dry Wt; Bait eaten by 10 slugs ([1]; 1.0 % Al in wheatmeal bait): 0.41 g Dry Wt; Bait eaten by 10 slugs ([1]; 3.0 % Al in wheatmeal bait): 0.42 g Dry Wt |
